From PMC12096953, “Insights into heme degradation and hydrogen peroxide-induced dimerization of human neuroglobin” (Bioscience Reports, 2025)
Results are given in words; binding and its absence hold for the method and conditions named. Some entries that bind do so weakly or less than the wild type.

What was measured:
[1] = target: human neuroglobin Y44A variant (human) (UniProt Q9NPG2); assay: cross-linking; H2O2-induced covalent Tyr-Tyr links: dimers isolated by SEC (HiLoad 16/600 Superdex 75) after 15-fold (wild type) or 17-fold (Y44A) excess of H2O2, S-alkylated, trypsin digest, LC-ESI-MS/MS peptide mapping; both purified
[2] = target: human neuroglobin C46AC55A variant (human) (UniProt Q9NPG2); assay: SEC-MALS; HPLC-SEC-PDA-MALS, Superdex 200 10/300 GL, 1x PBS pH 7.4, 25°C, detection at 412 nm; 1 μg/μL protein incubated 20 h at 4°C with different molar excess of H2O2 before the run; monomer to covalent dimer; both purified
[3] = target: human neuroglobin Y44FC46AC55A variant (human) (UniProt Q9NPG2); assay: as above

B1: human neuroglobin Y44A variant (natural protein, UniProt Q9NPG2 1-151, looked up)
chain: MERPEPELIRQSWRAVSRSPLEHGTVLFARLFALEPDLLPLFQANCRQFSSPEDCLSSPEFLDHIRKVMLVIDAAVTNVEDLSSLEEYLASLGRKHRAVGVKLSSFSTVGESLLYMLEKCLGPAFTPATRAAWSQLYGAVVQAMSRGWDGE
notes: human neuroglobin (hNgb) with Y44A; also called hNgb Y44A
B1 was tested, and the binding [1] was “binds weakly”.

B2: human neuroglobin C46AC55A variant (protein, UniProt Q9NPG2 1-151)
chain: MERPEPELIRQSWRAVSRSPLEHGTVLFARLFALEPDLLPLFQYNARQFSSPEDALSSPEFLDHIRKVMLVIDAAVTNVEDLSSLEEYLASLGRKHRAVGVKLSSFSTVGESLLYMLEKCLGPAFTPATRAAWSQLYGAVVQAMSRGWDGE
With B2 the binding [2] was “no binding”.

B3: human neuroglobin Y44FC46AC55A variant (protein, UniProt Q9NPG2 1-151)
chain: MERPEPELIRQSWRAVSRSPLEHGTVLFARLFALEPDLLPLFQFNARQFSSPEDALSSPEFLDHIRKVMLVIDAAVTNVEDLSSLEEYLASLGRKHRAVGVKLSSFSTVGESLLYMLEKCLGPAFTPATRAAWSQLYGAVVQAMSRGWDGE
In the case of B3, the binding [3] is reported as “no binding”.
